# According to patent US20090010998A1 (priority 2007, published 2009):
# System: skin
# Settings: after 24 hours
structure (smiles),measurement,value
CCN(CC)CC(=O)Nc1c(C)cccc1C [^14C-lidocaine],lidocaine remained in the patch,< 3%
